Assay results reported in patent US11957735B2, “Releasable GLP-1 conjugates” (QuiaPEG Pharmaceuticals AB, priority 2018, dated 2024).
At least one structure is not confirmed: it was looked up by name or label, or the drawing left a doubt.

System: cAMP
Assay: Cell-based bioactivity assay (cAMP Hunter Liraglutide Bioassay Kit)
Conditions: FIG. 9

CCCCCCCCCCCCCCCC(=O)N[C@@H](CCC(=O)NCCCC[C@H](NC(=O)[C@H](C)NC(=O)[C@H](C)NC(=O)[C@H](CCC(N)=O)NC(=O)CNC(=O)[C@H](CCC(=O)O)NC(=O)[C@H](CC(C)C)NC(=O)[C@H](Cc1ccc(O)cc1)NC(=O)[C@H](CO)NC(=O)[C@H](CO)NC(=O)[C@@H](NC(=O)[C@H](CC(=O)O)NC(=O)[C@H](CO)NC(=O)[C@@H](NC(=O)[C@H](Cc1ccccc1)NC(=O)[C@@H](NC(=O)CNC(=O)[C@H](CCC(=O)O)NC(=O)[C@H](C)NC(=O)[C@@H](N)Cc1cnc[nH]1)[C@@H](C)O)[C@@H](C)O)C(C)C)C(=O)N[C@@H](CCC(=O)O)C(=O)N[C@@H](Cc1ccccc1)C(=O)N[C@H](C(=O)N[C@@H](C)C(=O)N[C@@H](Cc1c[nH]c2ccccc12)C(=O)N[C@@H](CC(C)C)C(=O)N[C@H](C(=O)N[C@@H](CCCNC(=N)N)C(=O)NCC(=O)N[C@@H](CCCNC(=N)N)C(=O)NCC(=O)O)C(C)C)[C@@H](C)CC)C(=O)O [liraglutide, Liraglutide]
biological activity with increasing amounts: increasing biological activity
